Reference: patent US20200055951A1 (DONG A UNIVERSITY RESEARCH FOUNDATION FOR INDUSTRY ACADEMY …, published 2020)
Results are given in words; binding and its absence hold for the method and conditions named. Some entries that bind do so weakly or less than the wild type. For part of these data: Tags and fused reporters may be left off the sequences shown.

T1: PAUF-His protein (UniProt Q96DA0 17-172, limits assumed)
T1 construct: not shown: His tag
T1 sequence (looked up): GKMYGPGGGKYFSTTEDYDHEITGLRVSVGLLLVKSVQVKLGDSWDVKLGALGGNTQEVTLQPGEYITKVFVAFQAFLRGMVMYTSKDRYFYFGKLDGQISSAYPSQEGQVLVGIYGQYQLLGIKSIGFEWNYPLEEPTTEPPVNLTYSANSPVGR

T2: pancreatic adenocarcinoma upregulated factor (PAUF) protein (UniProt Q96DA0)
T2 sequence (looked up): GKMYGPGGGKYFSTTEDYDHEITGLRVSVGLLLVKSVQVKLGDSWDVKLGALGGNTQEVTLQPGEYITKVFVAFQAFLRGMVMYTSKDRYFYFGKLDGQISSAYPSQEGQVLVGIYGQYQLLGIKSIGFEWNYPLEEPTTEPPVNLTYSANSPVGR

T3: PAUF-N-His
T3 sequence: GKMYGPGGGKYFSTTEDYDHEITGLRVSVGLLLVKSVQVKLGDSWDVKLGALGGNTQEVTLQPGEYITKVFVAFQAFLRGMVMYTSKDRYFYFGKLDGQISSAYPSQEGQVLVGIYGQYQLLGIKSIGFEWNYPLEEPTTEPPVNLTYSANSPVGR


Key:
PAUF-His protein [1] = target: T1, PAUF-His protein; test: indirect ELISA, antigen-coated plate, anti-human kappa light chain-HRP
PAUF-His protein [2] = target: T1, PAUF-His protein; test: indirect ELISA by the method of Example 2-2 (PAUF-His and unspecified antigens coated, anti-human kappa light chain-HRP)
PAUF-His protein [3] = target: T1, PAUF-His protein; test: indirect ELISA titration on PAUF-His, anti-human Fc-HRP
PAUF-His protein [4] = target: T1, PAUF-His protein; test: indirect ELISA, PAUF-His coated, antibody titrated, anti-human Fc-HRP
[5] = target: T2, pancreatic adenocarcinoma upregulated factor (PAUF) protein; test: screen of single B lymphocytes on PAUF-coated 96-well plate, HRP-labeled anti-mouse antibody
PAUF-N-His = target: T3, PAUF-N-His; test: indirect ELISA, plates coated with PAUF-N-His and unrelated antigens
[6] = target: T2, pancreatic adenocarcinoma upregulated factor (PAUF) protein; test: indirect ELISA, PAUF-coated plate, HRP-labeled anti-mouse antibody
[7] = target: T2, pancreatic adenocarcinoma upregulated factor (PAUF) protein; test: competitive ELISA on PAUF-coated plate; competitor biotin-labeled 2H2, streptavidin-HRP
PAUF-His protein [8] = target: T1, PAUF-His protein; test: indirect ELISA, PAUF-His and unspecified antigens coated, antibody at 0, 1 and 5 µg/mL, anti-human kappa light chain-HRP
PAUF-His protein [9] = target: T1, PAUF-His protein; test: indirect ELISA (affinity), PAUF-His coated, antibody titrated, anti-human Fc-HRP
PAUF-His protein [10] = target: T1, PAUF-His protein; test: indirect ELISA, PAUF-His coated, antibody titrated, anti-human Fc-HRP; comparator, weaker than 2H2-VH1/VL1

binding (PAUF-His protein [1]) | binding (PAUF-His protein [2]) | binding (PAUF-His protein [3]) | binding (PAUF-His protein [4]) | binding [5] | binding (PAUF-N-His) | binding [6] | binding [7] | binding (PAUF-His protein [8]) | binding (PAUF-His protein [9]) | binding (PAUF-His protein [10]) | Binder
binds | binds | binds | binds |  |  |  |  |  |  |  | hPMAb22 (anti-PAUF protein humanized antibody) (antibody, V domains shown, CDR-grafted humanized antibody with human constant regions; Expressed in HEK293 cells; also called 2H2-VH1/VL1; 2H2-VH1-VL1) VH: QVQLVQSGAEVKKPGASVKVSCKASGFNIKDYYMHWVRQAPGQGLEWMGWIDPENGNTNYAQKFQGRVTMTRDTSISTAYMELSRLRSDDTAVYYCARRAITTATAWFAYWGQGTLVTVSS VL: DIVMTQSPDSLAVSLGERATINCKSSQSLLNSRTRKNYLAWYQQKPGQPPKLLIYWASTRESGVPDRFSGSGSGTDFTLTISSLQAEDVAVYYCKQSYNLYTFGQGTKVEIK
 |  |  |  | binds | binds | binds | binds |  |  |  | 2H2 (anti-PAUF protein mouse antibody) (antibody, V domains shown, Mouse monoclonal antibody; also called 21-12 [sic]) VH: QVQLKQSGAELVRPGALVKLSCKASGFNIKDYYMHWVKQRPEQGLEWIGWIDPENGNTIYDPKFQGKASITADTSSNTAYLQLSSLTSEDTAVYYCARRAITTATAWFAYWGQGTLVTVSA VL: DIVMTQSPSSLAVSAGEKVTMSCKSSQSLLNSRTRKNYLAWYQQKPGQSPKLLIYWASTRESGVPDRFTGSGSGTDFTLTISSVQAEDLAVYYCKQSYNLYTFGAGTKLELK
 |  |  |  | binds | binds | binds | binds |  |  |  | 20C5 (anti-PAUF protein mouse antibody) (antibody, V domains shown, Mouse monoclonal antibody) VH: QVQLKESGAELVRPGALVKLSCKASGFNIKDYYMHWVKQRPEQGLEWIGWIDPEHGNTIYDPKFQGKASLTADTSSNTAYLQLSSLTSEDTAVYYCARRGWLPAWFAYWGQGTLVTVSA VL: DIVMTQSPSSLAVSAGEKVTLSCKSSQSLLNSRTRKNYLAWYQQKPGQSPKLLIYWASTRESGVPDRFTGSGSGTDFTLTISSVQAEDLAVYYCKQSYNLYTFGGGTKLEIK
binds |  | binds |  |  |  |  |  | binds | binds |  | cPMAb205 (chimeric antibody of 20C5) (antibody, V domains shown, Mouse variable regions of 20C5 on human heavy and light chain constant regions (kappa light chain implied by the anti-human kappa secondary antibody); Expressed in HEK293 cells) VH: QVQLKESGAELVRPGALVKLSCKASGFNIKDYYMHWVKQRPEQGLEWIGWIDPEHGNTIYDPKFQGKASLTADTSSNTAYLQLSSLTSEDTAVYYCARRGWLPAWFAYWGQGTLVTVSA VL: DIVMTQSPSSLAVSAGEKVTLSCKSSQSLLNSRTRKNYLAWYQQKPGQSPKLLIYWASTRESGVPDRFTGSGSGTDFTLTISSVQAEDLAVYYCKQSYNLYTFGGGTKLEIK
binds |  | binds |  |  |  |  |  | binds | binds | binds | cPMAb22 (chimeric antibody of 2H2) (antibody, V domains shown, Mouse variable regions of 2H2 on human heavy and light chain constant regions (kappa light chain implied by the anti-human kappa secondary antibody); Expressed in HEK293 cells) VH: QVQLKQSGAELVRPGALVKLSCKASGFNIKDYYMHWVKQRPEQGLEWIGWIDPENGNTIYDPKFQGKASITADTSSNTAYLQLSSLTSEDTAVYYCARRAITTATAWFAYWGQGTLVTVSA VL: DIVMTQSPSSLAVSAGEKVTMSCKSSQSLLNSRTRKNYLAWYQQKPGQSPKLLIYWASTRESGVPDRFTGSGSGTDFTLTISSVQAEDLAVYYCKQSYNLYTFGAGTKLELK
